Source: article PMC7053324
The exact form of at least one protein or probe is not confirmed. Results from cells or extracts need not show a direct contact. At least one verdict was read from the data and is not stated in words by the source.

Protein sequences, listed by entry. Tags and fused reporters are not part of them. Residues count along the entry.
UniProt P30530, 26-894: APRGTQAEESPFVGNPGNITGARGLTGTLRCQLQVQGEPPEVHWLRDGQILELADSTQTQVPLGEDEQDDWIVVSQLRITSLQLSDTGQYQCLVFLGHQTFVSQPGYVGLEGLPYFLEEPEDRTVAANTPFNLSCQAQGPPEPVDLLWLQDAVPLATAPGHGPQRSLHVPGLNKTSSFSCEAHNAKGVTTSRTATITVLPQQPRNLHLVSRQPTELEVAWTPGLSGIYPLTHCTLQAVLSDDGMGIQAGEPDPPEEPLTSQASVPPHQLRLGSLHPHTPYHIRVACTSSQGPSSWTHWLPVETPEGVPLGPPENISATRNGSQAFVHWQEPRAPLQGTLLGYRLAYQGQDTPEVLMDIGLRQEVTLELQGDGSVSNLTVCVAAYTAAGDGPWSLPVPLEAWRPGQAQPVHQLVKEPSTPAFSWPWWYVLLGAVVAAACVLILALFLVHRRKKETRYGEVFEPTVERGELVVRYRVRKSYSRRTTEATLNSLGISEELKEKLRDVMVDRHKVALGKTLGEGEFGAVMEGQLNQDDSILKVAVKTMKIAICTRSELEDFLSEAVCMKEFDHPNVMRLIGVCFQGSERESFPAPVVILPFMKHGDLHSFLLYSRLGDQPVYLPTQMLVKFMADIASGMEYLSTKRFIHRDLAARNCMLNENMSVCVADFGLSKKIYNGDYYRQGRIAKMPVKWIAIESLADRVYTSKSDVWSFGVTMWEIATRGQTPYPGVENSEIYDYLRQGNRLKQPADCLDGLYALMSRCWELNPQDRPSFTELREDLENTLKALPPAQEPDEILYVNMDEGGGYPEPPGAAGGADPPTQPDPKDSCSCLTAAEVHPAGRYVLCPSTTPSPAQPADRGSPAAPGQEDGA

Target: AXL receptor tyrosine kinase on A549 cells (UniProt P30530)
Assay: cell binding, qRT-PCR of recovered RNA
Conditions: 30 min, 2'-F pyrimidines, Live A549 cells, 200 nM RNA, 30 min at 37 C, 3 washes with ice-cold DPBS, TRIzol recovery, binding buffer/medium and pH not stated, protein on the cell surface

Sequence | binding result (comparison aptamer) | binding result (normalized to CL4 reference and cell number, sticky 17-mers 2'-F-Py and 2'-OMe-Pu, XXXX = C3 carbon linkers between C34 and G35 of strand 1 (left out of the string))
AUGAUCAAUCGCCUCAAUUCGACAGGAGGCUCAC [GL21.T (AXL aptamer)] | binds | 
AUGAUCAAUCGCCUCAAUUCGACAGGAGGCUCACGUACAUUCUAGAUAGCC / AGGUGAAGUUCUGUUAUACACUCAGGCUGGCUAUCUAGAAUGUAC / AGUCAGUGCAUCACAGAACUUUGUCUUU |  | binds
